Results published in publication PMC7819943, “Rice protein-binding microarrays: a tool to detect cis-acting elements near promoter regions in rice”.
This is one part of the list.

Protein sequences, listed by entry. Tags and fused reporters are not part of them.
UniProt Q0JBA9, entry or part of it: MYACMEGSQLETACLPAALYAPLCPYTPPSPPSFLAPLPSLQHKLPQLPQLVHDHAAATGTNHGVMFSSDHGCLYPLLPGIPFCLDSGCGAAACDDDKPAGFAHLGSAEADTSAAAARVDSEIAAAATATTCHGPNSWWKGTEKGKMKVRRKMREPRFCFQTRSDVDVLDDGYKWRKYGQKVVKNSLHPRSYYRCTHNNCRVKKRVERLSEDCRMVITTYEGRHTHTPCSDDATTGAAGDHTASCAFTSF

Target: OsWRKY34 (Oryza sativa, UniProt Q0JBA9 1-250)
Assay: protein-binding microarray (RPBM); PBS, 2% BSA, 51.3 ng/ul salmon testes DNA, 50 uM zinc acetate, 200 nM TF, 25 C, 1 h; high values mean tight binding
Details: protein: recombinant; tags: N-terminal polyhistidine and DsRed monomer fusion (pET32a); label: CyDye5-dUTP incorporated in the synthesized complementary strand; 3' TTTTT single-stranded linker to array surface; dsDNA, one strand shown
Outline: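 Polyhistidine-tagged DsRed fusions of transcription factors, joined at the N-terminus, were expressed in E. coli BL21-CodonPlus and isolated on Ni–NTA. They were incubated at 200 nM for 1 h at 25 °C on a custom Agilent array, double-stranded and BSA-blocked, in PBS with 2% BSA, salmon testes DNA and 50 µM zinc acetate. The binding signal is per-feature fluorescence intensity (arbitrary units) read on an Axon 4000B scanner after washing.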

First: CTACACATACAAGGCACACACATCCCATGCTACTAGTGCTCGGAGTCACCTAGTGCAG
Second: GGTCAAATATATTTTAAAAAGTCAACGGCGTCAAACATTTCGGAGTCACCTAGTGCAG
The binding signal of the first is lower: 8120 fluorescence intensity (a.u.) for the first, 10600 fluorescence intensity (a.u.) for the second.

Going from “TTGCGTGGCCTCGCCTGCCCTTGTTCACCTCACCTCAGCTCGGAGTCACCTAGTGCAG” to “CAGTGGCTTGTGCATGCTCCTTTCTCCAATTTCATTATTACGGAGTCACCTAGTGCAG”, the binding signal falls from 8710 fluorescence intensity (a.u.) to 8630 fluorescence intensity (a.u.).

Compared with “ACTGAGGGAGGGGCACTTCCGTCATTTCGTATAAGCGTATCGGAGTCACCTAGTGCAG”, “CGGGGCCATCTACCTTCTCATTCACCTCTGCACATCGTCGCGGAGTCACCTAGTGCAG” is higher in binding signal: 9700 fluorescence intensity (a.u.) for the first, 11000 fluorescence intensity (a.u.) for the second.

First: TAATGAGACCGATTGCTTTTTCTTTAGTTTGATATATATACGGAGTCACCTAGTGCAG
Second: ACTTTCACGCTCATCGCCACGTCGACTTTCTCCGCTACAACGGAGTCACCTAGTGCAG
The binding signal of the first is lower: 8360 fluorescence intensity (a.u.) for the first, 11900 fluorescence intensity (a.u.) for the second.

Going from “CATTCATTTGTTTTATTACTGTCTAAACACAGTCACCTTTCGGAGTCACCTAGTGCAG” to “GTCCATCCATTGTCACCAGATACCATTCATATACAAATTTCGGAGTCACCTAGTGCAG”, the binding signal rises from 8420 fluorescence intensity (a.u.) to 10300 fluorescence intensity (a.u.).

First: AAAACCACCTGGAATTACCTACAGCCTTGCTAAAGATTTTCGGAGTCACCTAGTGCAG
Second: CCCTCACTGCCTCTCTCCTGAGACCGACAGCACTCATCTGCGGAGTCACCTAGTGCAG
The binding signal of the first is higher: 9870 fluorescence intensity (a.u.) for the first, 8420 fluorescence intensity (a.u.) for the second.

First: AACCTTTTATTCCTTCTTTCTACTTGCACTTTACTATATTCGGAGTCACCTAGTGCAG
Second: TTTCTGTTTAACGTCAACCCGGCTGTTTTCGCCCGGTCAACGGAGTCACCTAGTGCAG
The binding signal of the first is higher: 10500 fluorescence intensity (a.u.) for the first, 9040 fluorescence intensity (a.u.) for the second.

Going from “AGTACTCCAGCAGACCAGCACATTCATTTCGTTAATTATACGGAGTCACCTAGTGCAG” to “TCTTGCGTTTCGATTTCTTTTTATTATTTTCCTGAGAGAGCGGAGTCACCTAGTGCAG”, the binding signal falls from 11800 fluorescence intensity (a.u.) to 8630 fluorescence intensity (a.u.).

First: TTAGTTTTCTGTTTGCTACACTGAGGTGGTTTTCATGTCACGGAGTCACCTAGTGCAG
Second: TTCATCTCCGCGACCGAAGTCCACTGCCTAGTCGTCACATCGGAGTCACCTAGTGCAG
The binding signal of the first is higher: 10100 fluorescence intensity (a.u.) for the first, 8830 fluorescence intensity (a.u.) for the second.

First: TTTGCGCCGTTGACTCTGCCGCGTATTGCTCGGTACTCCACGGAGTCACCTAGTGCAG
Second: CTACTATACGTCGATGGGGAGGGAGGGAGGGTGGCTGTAGCGGAGTCACCTAGTGCAG
The binding signal of the first is lower: 12500 fluorescence intensity (a.u.) for the first, 26400 fluorescence intensity (a.u.) for the second.

First: AATCTTCTGCCATGCTCAAATTTGGCTTTCTGTGCACTGTCGGAGTCACCTAGTGCAG
Second: GCTTTCGTGATTACGACTTACCGTCGTGCTGCGCCCTTCACGGAGTCACCTAGTGCAG
The binding signal of the first is higher: 9110 fluorescence intensity (a.u.) for the first, 8700 fluorescence intensity (a.u.) for the second.

First: ATGTGTTGTATGAATGTTGTCAATTTTTTCCAGATTTTTTCGGAGTCACCTAGTGCAG
Second: CGTTCGATTTAACTTCCCGTCTTGTTAAGCTTGGCCACATCGGAGTCACCTAGTGCAG
The binding signal of the first is lower: 10700 fluorescence intensity (a.u.) for the first, 13700 fluorescence intensity (a.u.) for the second.

First: TCGACCGCATCTCATCTCATCTCACCGTTGGATCGCGCGCCGGAGTCACCTAGTGCAG
Second: ATTTTGGGTTGCCAAGTTAGGCCAATAAGGGGAGGGATTTCGGAGTCACCTAGTGCAG
The binding signal of the first is higher: 9670 fluorescence intensity (a.u.) for the first, 8110 fluorescence intensity (a.u.) for the second.

First: TTACACATTTCTTTTTCATCACTGCTGATATGTTATCCTTCGGAGTCACCTAGTGCAG
Second: CGTTGTCCCACTTCGCCTGGCTGCTCCGCTTGCCGCCATCCGGAGTCACCTAGTGCAG
The binding signal of the first is higher: 9940 fluorescence intensity (a.u.) for the first, 8880 fluorescence intensity (a.u.) for the second.

First: ATCGTCGTCTCCTTCGGCTCGCGTCGCCACTGCCGCCGCTCGGAGTCACCTAGTGCAG
Second: CCGCCATTTTTCTTCTCATCGTCTCCACCGCGCGCGCCACCGGAGTCACCTAGTGCAG
The binding signal of the first is higher: 10500 fluorescence intensity (a.u.) for the first, 9390 fluorescence intensity (a.u.) for the second.

Going from “CACCATCCCAAAATATTTGACGCCGTTGACTTTTTTAAAACGGAGTCACCTAGTGCAG” to “AGGTGTGTGAATTGTGATGGAGGGAGAGAGAGAGAGATAGCGGAGTCACCTAGTGCAG”, the binding signal falls from 14000 fluorescence intensity (a.u.) to 8440 fluorescence intensity (a.u.).

First: GTCGTCAACCGCTGCTTGCTTATAAGTATCATGAGAAGAACGGAGTCACCTAGTGCAG
Second: CACACACAACTTCAGATCAATTTCGATACACCCTCCGAGACGGAGTCACCTAGTGCAG
The binding signal of the first is higher: 8410 fluorescence intensity (a.u.) for the first, 8090 fluorescence intensity (a.u.) for the second.

First: CTGTATGGCCACCGTCGCAGCTCGTCCTACACGTTTCTCACGGAGTCACCTAGTGCAG
Second: TTTAATTCTAGAATCATGTATTTTTCCTATTCCTCTATTTCGGAGTCACCTAGTGCAG
The binding signal of the first is higher: 10600 fluorescence intensity (a.u.) for the first, 8040 fluorescence intensity (a.u.) for the second.

Compared with “GACAAACAACAGTCCACGTCACCTTTATCCATCTTTTTTTCGGAGTCACCTAGTGCAG”, “TGTATATCTGCTACCTCAACATTTTTCTCACCCACCGACCCGGAGTCACCTAGTGCAG” is lower in binding signal: 9020 fluorescence intensity (a.u.) for the first, 8220 fluorescence intensity (a.u.) for the second.

First: GCTGGTAGTGGACACAGAGAGTTCTGCACTCTCTTTCACTCGGAGTCACCTAGTGCAG
Second: TAAATATTTGACACCGTTGACTTTTTACACATATTTGACCCGGAGTCACCTAGTGCAG
The binding signal of the first is lower: 9320 fluorescence intensity (a.u.) for the first, 35100 fluorescence intensity (a.u.) for the second.

Going from “TTGTTGCAGCCTCGCAGTAAGATTCCTTGTTTTTCTTAGCCGGAGTCACCTAGTGCAG” to “ACGTTGTGTCGCGGCAAAGGTATGTTTGGTCTTTTCTGAGCGGAGTCACCTAGTGCAG”, the binding signal falls from 8620 fluorescence intensity (a.u.) to 8570 fluorescence intensity (a.u.).

First: TGGCTTCCCCGGTCACTGCACCACCACCGGCACCGGCAACCGGAGTCACCTAGTGCAG
Second: CTCTCATGCCACTACCGTCAGTTGACCGTGCGTTGATCGTCGGAGTCACCTAGTGCAG
The binding signal of the first is lower: 8580 fluorescence intensity (a.u.) for the first, 10500 fluorescence intensity (a.u.) for the second.

Compared with “TCCCGCATATTACTCGTCGCCACCGCGGTCACCGCCCCTCCGGAGTCACCTAGTGCAG”, “TATTAGTTACGGTGGTGTTATTCCTTGGTTTGTCTAGTTTCGGAGTCACCTAGTGCAG” is higher in binding signal: 9000 fluorescence intensity (a.u.) for the first, 15900 fluorescence intensity (a.u.) for the second.

First: CGCCACTTGTCTTCGTCTTCCAGCTCCGCGCACCACCCACCGGAGTCACCTAGTGCAG
Second: TCCAACCTCTCATACACACATAATGTCCGTGCTGCATTCCCGGAGTCACCTAGTGCAG
The binding signal of the first is higher: 9470 fluorescence intensity (a.u.) for the first, 9110 fluorescence intensity (a.u.) for the second.

Going from “CCCCTCCGCCTCAACCCGCACACTTGTCCGGCCCAAAAAGCGGAGTCACCTAGTGCAG” to “GGGCGCTTGGTGGCGGTGGGGCGTCGAGGGCGGGCGGCAGCGGAGTCACCTAGTGCAG”, the binding signal rises from 8380 fluorescence intensity (a.u.) to 13300 fluorescence intensity (a.u.).

First: CCGCTCTCTTGCCGTTACTCATGCCCCTCGGTGAAGACGACGGAGTCACCTAGTGCAG
Second: TCCTATAAACTCCCACTGACAACTGGGACCCGCATATCCGCGGAGTCACCTAGTGCAG
The binding signal of the first is lower: 8760 fluorescence intensity (a.u.) for the first, 9180 fluorescence intensity (a.u.) for the second.

Going from “ATGCGGCGGTGGCGGGAGGGAGGGACAGGGTTGGTGAAGTCGGAGTCACCTAGTGCAG” to “CTCCTTCGTCGCCTCTGCGACCGCCACGCGCCACCCATCTCGGAGTCACCTAGTGCAG”, the binding signal falls from 17400 fluorescence intensity (a.u.) to 9570 fluorescence intensity (a.u.).
